Data as given in PubChem BioAssay AID743121 (NCATS, 2013).

Test: 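Partners whose loss is lethal together with topoisomerase I blockade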 (primary screen)
Cells: MDA-MB-231 cells, a human breast cancer line
Reagents: single siRNA against human genes, 20 nM siRNA (0.8 pmol per well)
Duration: 120 h (drug added 48 h after transfection, read 72 h later)
Conditions: camptothecin 20 nM (about EC30) for 72 h; vehicle 0.1% DMSO in parallel plates
Measurement: 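CellTiter-Glo ATP signal, scaled to control siRNA as percent viability; sensitisation given as log2 of untreated divided by camptothecin-treated viability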
Scale: log2 vehicle/camptothecin viability: higher = stronger sensitisation to camptothecin
Active means: 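Active genes have an RSA gene-level p-value below 0.001, computed from the ratios of their separate siRNAs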
The whole screen tested about 26,000 reagents; shown is a part drawn at random. 167 of all reagents (0.63%) were called active. 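Calls are per gene from RSA p-values that are not deposited; an individual active-marked siRNA can sensitise only weakly.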 Reagents against one gene are numbered here. Not all columns of the deposit are shown.

| gene symbol | reagent no. | log2 vehicle/camptothecin viability | Call |
| --- | --- | --- | --- |
| SLC9B1 (GeneID 150159) | 1 | 0.0508 | inactive |
| SLC9B1 (GeneID 150159) | 2 | -0.172 | inactive |
| SLC9B1 (GeneID 150159) | 3 | -0.409 | inactive |
| SLC9B1 (GeneID 150159) | 4 | -0.0357 | inactive |
| CLN8 (GeneID 2055) | 1 | -0.447 | inactive |
| CLN8 (GeneID 2055) | 2 | -0.151 | inactive |
| CLN8 (GeneID 2055) | 3 | -0.32 | inactive |
| CLN8 (GeneID 2055) | 4 | -0.114 | inactive |
| FBXO8 (GeneID 26269) | 1 | 0.173 | inactive |
| FBXO8 (GeneID 26269) | 2 | -0.584 | inactive |
| FBXO8 (GeneID 26269) | 3 | 0.388 | inactive |
| FBXO8 (GeneID 26269) | 4 | -0.276 | inactive |
| SPO11 (GeneID 23626) | 1 | -0.43 | inactive |
| SPO11 (GeneID 23626) | 2 | 0.662 | inactive |
| SPO11 (GeneID 23626) | 3 | 0.0308 | inactive |
| SPO11 (GeneID 23626) | 4 | -0.051 | inactive |
| PPARG (GeneID 5468) | 1 | -0.0842 | inactive |
| PPARG (GeneID 5468) | 2 | -0.414 | inactive |
| PPARG (GeneID 5468) | 3 | -0.148 | inactive |
| PPARG (GeneID 5468) | 4 | -0.431 | inactive |
| PPARG (GeneID 5468) | 5 | 1.57 | inactive |
| GADL1 (GeneID 339896) | 1 | -0.0794 | inactive |
| GADL1 (GeneID 339896) | 2 | -0.478 | inactive |
| GADL1 (GeneID 339896) | 3 | 0.152 | inactive |
| GADL1 (GeneID 339896) | 4 | -0.176 | inactive |
| AKR1C4 (GeneID 1109) | 1 | -0.387 | inactive |
| AKR1C4 (GeneID 1109) | 2 | -0.435 | inactive |
| AKR1C4 (GeneID 1109) | 3 | 0.0459 | inactive |
| ALDH1A2 (GeneID 8854) | 1 | -0.224 | inactive |
| ALDH1A2 (GeneID 8854) | 2 | -0.132 | inactive |
| ALDH1A2 (GeneID 8854) | 3 | 0.0242 | inactive |
| ALDH1A2 (GeneID 8854) | 4 | -0.098 | inactive |
| ALDH1A2 (GeneID 8854) | 5 | -0.242 | inactive |
| ALDH1A2 (GeneID 8854) | 6 | 0.853 | inactive |
| FNTB (GeneID 2342) | 1 | 0.38 | inactive |
| FNTB (GeneID 2342) | 2 | -0.103 | inactive |
| FNTB (GeneID 2342) | 3 | -0.107 | inactive |
| FNTB (GeneID 2342) | 4 | -0.316 | inactive |
| AKAP9 (GeneID 10142) | 1 | -0.114 | inactive |
| AKAP9 (GeneID 10142) | 2 | -0.259 | inactive |
| AKAP9 (GeneID 10142) | 3 | -0.235 | inactive |
| AKAP9 (GeneID 10142) | 4 | 0.0121 | inactive |
| PAK4 (GeneID 10298) | 1 | -0.477 | inactive |
| PAK4 (GeneID 10298) | 2 | -0.0243 | inactive |
| PAK4 (GeneID 10298) | 3 | -0.0774 | inactive |
| PAK4 (GeneID 10298) | 4 | -0.107 | inactive |
| PPP1R9B (GeneID 84687) | 1 | 0.446 | inactive |
| PPP1R9B (GeneID 84687) | 2 | -0.0257 | inactive |
| PPP1R9B (GeneID 84687) | 3 | -0.72 | inactive |
| PPP1R9B (GeneID 84687) | 4 | -0.195 | inactive |
| NRCAM (GeneID 4897) | 1 | 0.0184 | inactive |
| NRCAM (GeneID 4897) | 2 | 0.0618 | inactive |
| NRCAM (GeneID 4897) | 3 | 0.0464 | inactive |
| NRCAM (GeneID 4897) | 4 | -0.159 | inactive |
| CASP9 (GeneID 842) | 1 | -0.427 | inactive |
| CASP9 (GeneID 842) | 2 | -0.0273 | inactive |
| CASP9 (GeneID 842) | 3 | -0.308 | inactive |
| P2RX6 (GeneID 9127) | 1 | 0.591 | inactive |
| P2RX6 (GeneID 9127) | 2 | -0.188 | inactive |
| P2RX6 (GeneID 9127) | 3 | -0.579 | inactive |
| P2RX6 (GeneID 9127) | 4 | 0.154 | inactive |
| MCOLN3 (GeneID 55283) | 1 | -0.0424 | inactive |
| MCOLN3 (GeneID 55283) | 2 | 0.0488 | inactive |
| MCOLN3 (GeneID 55283) | 3 | -0.31 | inactive |
| CA1 (GeneID 759) | 1 | 0.472 | inactive |
| CA1 (GeneID 759) | 2 | -0.14 | inactive |
| CA1 (GeneID 759) | 3 | -0.471 | inactive |
| LIG4 (GeneID 3981) | 1 | -0.601 | inactive |
| LIG4 (GeneID 3981) | 2 | -0.196 | inactive |
| LIG4 (GeneID 3981) | 3 | -0.822 | inactive |
| LIG4 (GeneID 3981) | 4 | -0.549 | inactive |
